Measurements as given in the supplement of paper PMC4604168 (melanoma cell lines).
The other results are listed elsewhere or left out. Many values rest on one well or one pass, so single values are uncertain.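 Imaging used 1,536-well plates; nuclei positive for cleaved PARP by antibody were divided by total DNA-stained nuclei to yield the apoptosis fraction. Doses for screening kept most cells viable, and cell lines differ markedly in resting and induced cleaved-PARP levels.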

Key:
Assay in all cases: cleaved PARP positive nuclei fraction relative to DMSO control; melanoma cells; higher = more apoptosis
Conditions in all cases: library dose: low library concentration; 72 h
COLO792 = tested on: COLO792
COLO800 = tested on: COLO800
COLO829 = tested on: COLO829
G361 = tested on: G361
IPC-298 = tested on: IPC-298
IST-MEL1 = tested on: IST-MEL1
LB2518-MEL = tested on: LB2518-MEL
LOXIMVI = tested on: LOXIMVI

Row | SMILES | cleaved PARP positive nuclei fraction (COLO792) [%] | cleaved PARP positive nuclei fraction (COLO800) [%] | cleaved PARP positive nuclei fraction (COLO829) [%] | cleaved PARP positive nuclei fraction (G361) [%] | cleaved PARP positive nuclei fraction (IPC-298) [%] | cleaved PARP positive nuclei fraction (IST-MEL1) [%] | cleaved PARP positive nuclei fraction (LB2518-MEL) [%] | cleaved PARP positive nuclei fraction (LOXIMVI) [%]
1 | C[C@@H](N)c1ccc(C(=O)Nc2ccnc3[nH]ccc23)cc1 + COc1ccc(COc2ccc(Cc3cnc(N)nc3N)cc2OC)cc1 [GW2580] (first compound 0.4 µM, partner dose 1 µM) | 32.8 | 31.8 | 139 | 39.6 | 48.4 | 192 | 68.3 | 247
2 | Cn1sc(=O)n(Cc2ccccc2)c1=O + O=C(Nc1ccccc1)c1cc([N+](=O)[O-])ccc1Cl [GW9662] (first compound 0.4 µM, partner dose 2 µM) | 83.6 | 40.9 | 87.9 | 85.6 | 112 | 91.1 | 71.7 | 137
3 | Cn1sc(=O)n(Cc2ccccc2)c1=O + N#Cc1c(O)c2c(-c3ccc(-c4ccccc4O)cc3)csc2[nH]c1=O [A769662] (first compound 0.4 µM, partner dose 2 µM) | 173 | 89.4 | 44.1 | 88.4 | 116 | 153 | 44 | 136
4 | CCN(CC)CCNC(=O)c1c(C)[nH]c(/C=C2\C(=O)Nc3ccc(F)cc32)c1C [sunitinib] + Cn1cc(/C=C2\C(=O)Nc3cccnc32)c2ccccc21 [GW441756] (first compound 0.4 µM, partner dose 0.4 µM) | 104 | 197 | 56.7 | 92.8 | 95.3 | 78.9 | 44.7 | 80
5 | NC1(c2ccc(-c3nc4ccn5c(=O)[nH]nc5c4cc3-c3ccccc3)cc2)CCC1 + Oc1nc(-c2ccc(C(F)(F)F)cc2)nc2c1CSCC2 [XAV939] (first compound 0.4 µM, partner dose 2 µM) | 110 | 83.6 | 54.9 | 79.5 | 112 | 65.2 | 162 | 68.6
6 | CCN(CC)CCNC(=O)c1c(C)[nH]c(/C=C2\C(=O)Nc3ccc(F)cc32)c1C [sunitinib] + CC(C)CCN1c2nc(Nc3cc(F)c(O)c(F)c3)ncc2N(C)C(=O)C1C [BID1870] (first compound 0.4 µM, partner dose 0.2 µM) | 90.9 | 389 | 72 | 141 | 63.5 | 189 | 61.7 | 152
7 | CN(c1ncccc1CNc1nc(Nc2ccc3c(c2)CC(=O)N3)ncc1C(F)(F)F)S(C)(=O)=O + CCN(CC)CCCCNc1ncc2cc(-c3cc(OC)cc(OC)c3)c(NC(=O)NC(C)(C)C)nc2n1 [PD173074] (first compound 0.08 µM, partner dose 0.1 µM) | 100 | 162 | 140 | 140 | 62.9 | 181 | 49.4 | 176
8 | COc1ccc(C2=N[C@@H](c3ccc(Cl)cc3)[C@@H](c3ccc(Cl)cc3)N2C(=O)N2CCNC(=O)C2)c(OC(C)C)c1 [Nutlin-3] + N#Cc1c(O)c2c(-c3ccc(-c4ccccc4O)cc3)csc2[nH]c1=O [A769662] (first compound 0.1 µM, partner dose 2 µM) | 82.4 | 69 | 60 | 20.7 | 59.9 | 162 | 76.9 | 150
9 | NC(=O)c1ccc(N(C(N)=O)c2c(F)cccc2F)nc1-c1ccc(F)cc1F + COc1ccc(COc2ccc(Cc3cnc(N)nc3N)cc2OC)cc1 [GW2580] (first compound 0.4 µM, partner dose 1 µM) | 111 | 70.8 | 81.6 | 86.3 | 189 | 226 | 69.3 | 818
10 | CS(=O)(=O)c1ccc(C(=O)Nc2ccc(Cl)c(-c3ccccn3)c2)c(Cl)c1 [vismodegib] + CCc1ccc(CCOc2ccc(CC3SC(=O)NC3=O)cc2)nc1 [pioglitazone] (first compound 1 µM, partner dose 2 µM) | 45.4 | 204 | 59.2 | 113 | 147 | 34.5 | 81.8 | 88
11 | COc1ccc(C2=N[C@@H](c3ccc(Cl)cc3)[C@@H](c3ccc(Cl)cc3)N2C(=O)N2CCNC(=O)C2)c(OC(C)C)c1 [Nutlin-3] + Cc1cc([N+](=O)[O-])ccc1NS(=O)(=O)c1cc(Cl)ccc1Cl [FH535] (first compound 0.1 µM, partner dose 1 µM) | 83.7 | 175 | 117 | 99.4 | 63.4 | 68.7 | 72.8 | 133
12 | CCCCCCCCc1ccc(CCC(N)(CO)CO)cc1 [fingolimod] + CCc1ccc(CCOc2ccc(CC3SC(=O)NC3=O)cc2)nc1 [pioglitazone] (first compound 2 µM, partner dose 2 µM) | 142 | 72.1 | 109 | 43.6 | 198 | 163 | 139 | 84.7
13 | CS(=O)(=O)c1ccc(C(=O)Nc2ccc(Cl)c(-c3ccccn3)c2)c(Cl)c1 [vismodegib] + O=C(Nc1ccccc1)c1cc([N+](=O)[O-])ccc1Cl [GW9662] (first compound 1 µM, partner dose 2 µM) | 31.2 | 126 | 131 | 98.1 | 59.7 | 28.5 | 65.3 | 170
14 | NC(=O)c1ccc(N(C(N)=O)c2c(F)cccc2F)nc1-c1ccc(F)cc1F + O=C1NC(=O)/C(=C/c2ccc(-c3ccc(F)cc3O)o2)S1 [AS252424] (first compound 0.4 µM, partner dose 1 µM) | 146 | 91.5 | 77 | 121 | 193 | 163 | 86 | 144
15 | CC(=O)O[C@@]12CO[C@@H]1C[C@H](O)[C@@]1(C)C(=O)[C@H](O)C3=C(C)[C@@H](OC(=O)[C@H](O)[C@@H](NC(=O)OC(C)(C)C)c4ccccc4)C[C@@](O)([C@@H](OC(=O)c4ccccc4)[C@H]21)C3(C)C [Docetaxel] + COC(=O)c1sccc1S(=O)(=O)Nc1ccc(Nc2ccccc2)cc1OC [GSK0660] (first compound 0.0001 µM, partner dose 1 µM) | 937 | 119 | 132 | 556 | 392 | 115 | 116 | 270
16 | CC1(C)CCC(c2ccc(Cl)cc2)=C(CN2CCN(c3ccc(C(=O)NS(=O)(=O)c4ccc(N[C@H](CCN5CCOCC5)CSc5ccccc5)c(S(=O)(=O)C(F)(F)F)c4)cc3)CC2)C1 + O=S(=O)(c1ccccc1)N(CC(F)(F)F)c1ccc(C(O)(C(F)(F)F)C(F)(F)F)cc1 [T0901317] (first compound 0.4 µM, partner dose 1.4 µM) | 224 | 51.4 | 55.9 | 387 | 204 | 81 | 76.1 | 124
17 | Cn1sc(=O)n(Cc2ccccc2)c1=O + CCc1ccc(CCOc2ccc(CC3SC(=O)NC3=O)cc2)nc1 [pioglitazone] (first compound 0.4 µM, partner dose 2 µM) | 18.4 | 127 | 164 | 70.7 | 91.7 | 106 | 74 | 476
18 | COc1ccc(C2=N[C@@H](c3ccc(Cl)cc3)[C@@H](c3ccc(Cl)cc3)N2C(=O)N2CCNC(=O)C2)c(OC(C)C)c1 [Nutlin-3] + COc1ccc(-c2ccc3c(N4CCOCC4)nc(N4C[C@@H](C)O[C@@H](C)C4)nc3n2)cc1CO [KU0063794] (first compound 0.1 µM, partner dose 0.02 µM) | 54.7 | 68.3 | 61.7 | 96.4 | 95.5 | 142 | 82.8 | 73.1
19 | CCCCCCCCc1ccc(CCC(N)(CO)CO)cc1 [fingolimod] + Oc1cc(-c2nc(-c3ccccc3)[nH]c2-c2ccncc2)ccc1Cl [L779450] (first compound 2 µM, partner dose 0.2 µM) | 117 | 92.8 | 50.5 | 111 | 116 | 107 | 142 | 218
20 | Cn1cnc2c(F)c(Nc3ccc(Br)cc3Cl)c(C(=O)NOCCO)cc21 [selumetinib] + CCN(CC)CCCCNc1ncc2cc(-c3cc(OC)cc(OC)c3)c(NC(=O)NC(C)(C)C)nc2n1 [PD173074] (first compound 0.015 µM, partner dose 0.1 µM) | 45.4 | 121 | 20 | 91.3 | 185 | 118 | 116 | 130
21 | CC1(C)CCC(c2ccc(Cl)cc2)=C(CN2CCN(c3ccc(C(=O)NS(=O)(=O)c4ccc(N[C@H](CCN5CCOCC5)CSc5ccccc5)c(S(=O)(=O)C(F)(F)F)c4)cc3)CC2)C1 + Cn1cc(/C=C2\C(=O)Nc3cccnc32)c2ccccc21 [GW441756] (first compound 0.4 µM, partner dose 0.4 µM) | 315 | 63.5 | 49.8 | 168 | 203 | 98.1 | 169 | 151
22 | CS(=O)(=O)c1ccc(C(=O)Nc2ccc(Cl)c(-c3ccccn3)c2)c(Cl)c1 [vismodegib] + c1cc(-c2cnn3cc(-c4ccc(OCCN5CCCCC5)cc4)cnc23)ccn1 [Dorsomorphin] (first compound 1 µM, partner dose 0.4 µM) | 58.7 | 59.6 | 148 | 198 | 95.6 | 91.7 | 66.3 | 109
23 | C[C@@H](N)c1ccc(C(=O)Nc2ccnc3[nH]ccc23)cc1 + N#Cc1c(O)c2c(-c3ccc(-c4ccccc4O)cc3)csc2[nH]c1=O [A769662] (first compound 0.4 µM, partner dose 2 µM) | 123 | 129 | 143 | 116 | 170 | 157 | 84.5 | 160

Individual results from the results shown:
cleaved PARP positive nuclei fraction (COLO800) [%] with CC1(C)CCC(c2ccc(Cl)cc2)=C(CN2CCN(c3ccc(C(=O)NS(=O)(=O)c4ccc(N[C@H](CCN5CCOCC5)CSc5ccccc5)c(S(=O)(=O)C(F)(F)F)c4)cc3)CC2)C1 + O=S(=O)(c1ccccc1)N(CC(F)(F)F)c1ccc(C(O)(C(F)(F)F)C(F)(F)F)cc1 [T0901317] (first compound 0.4 µM, partner dose 1.4 µM) reads 51.4
cleaved PARP positive nuclei fraction (G361) [%] with CC(=O)O[C@@]12CO[C@@H]1C[C@H](O)[C@@]1(C)C(=O)[C@H](O)C3=C(C)[C@@H](OC(=O)[C@H](O)[C@@H](NC(=O)OC(C)(C)C)c4ccccc4)C[C@@](O)([C@@H](OC(=O)c4ccccc4)[C@H]21)C3(C)C [Docetaxel] + COC(=O)c1sccc1S(=O)(=O)Nc1ccc(Nc2ccccc2)cc1OC [GSK0660] (first compound 0.0001 µM, partner dose 1 µM) reads 556
